The values that follow come from patent US9062124B2 (priority 2008, dated 2015).

The series in a line: general procedure: Boc solid-phase peptide synthesis; Boc Thr(OBzl) Pam resin; methoxybenzhydrylamine resin for C-terminal amides; HBTU (FastBoc single couplings); DEPBT for lactams. The following applies: conjugation step; for final HPLC purity: analytical HPLC, Zorbax C8, 214 nm, MALDI mass spectral analysis.

For the substance Glucagon Cys^24 Mal-PEG-20K, the difficulty met entry is “The product ratio had not significantly improved” and the “final HPLC purity” value is on record as “˜90%”.
Regarding Glucagon Cys^29 Mal-PEG-5K, the “final HPLC purity” value is listed as “greater than 95%”.
Same read-out and setting: as for Glucagon Cys^17 Mal-PEG-5K, the entry is “aprox. 90%”.
